This data set has as its target ComEA LL ins19aa,after,143 (Geobacillus stearothermophilus) (UniProt A0A0K9HI54). Nature of the data set: fluorescence polarization. The settings on record: Kd within error of ComEA, Hill >1, value in Fig. 5c only; FP: 20 mM Tris-HCl pH 7.5, 200 mM KCl, 80 nM DNA, ~20 C (spin at 20 C; read temperature not stated); optical tweezers 23 +/- 1 C; recombinant protein; residues 60-207; label: 3'-fluorescein (36-FAM) on strand 1.

The exact form of at least one protein or probe is not confirmed.

In the case of “GCACTGTGAATATCACTACAGCAACCTTGA (double strand) [30 bp DNA duplex]”, the binding result is recorded as “binds”.

The values above are taken from publication PMC13168374, “Reversible DNA condensation drives natural transformation”.
